Laboratory results as given in the supplement of paper PMC10077471.
The full ranking holds about 1,900 compounds; the median of “excess over highest single agent (ExcessHSA) synergy score, 6x6 matrix” is about -83, and the lowest 2% start at about -370. Some of the results follow.

What follows are compounds tested on NCI-H446 (assay: excess over highest single agent (ExcessHSA) synergy score, 6x6 matrix; higher = less synergy (more negative = stronger synergy)). Settings: 72 h; CellTiter-Glo viability.

SMILES | excess over highest single agent
Cc1cccc(-c2[nH]c(C(C)(C)C)nc2-c2ccc3c(c2)OCO3)n1 + Cc1sc2c(c1C)C(c1ccc(Cl)cc1)=N[C@@H](CC(=O)OC(C)(C)C)c1nnc(C)n1-2 [NCGC00250412-19] | -84.7
CC(C)(O)C(=O)Nc1ccc([N+](=O)[O-])c(C(F)(F)F)c1 + Cc1sc2c(c1C)C(c1ccc(Cl)cc1)=N[C@@H](CC(=O)OC(C)(C)C)c1nnc(C)n1-2 [NCGC00250412-19] | -139
CN1CC(=O)N2[C@H](c3ccc4c(c3)OCO4)c3[nH]c4ccccc4c3C[C@@H]2C1=O + Cc1sc2c(c1C)C(c1ccc(Cl)cc1)=N[C@@H](CC(=O)OC(C)(C)C)c1nnc(C)n1-2 [NCGC00250412-19] | -174
C1CCC(C(CC2CCCCN2)C2CCCCC2)CC1 (configuration not stated) + Cc1sc2c(c1C)C(c1ccc(Cl)cc1)=N[C@@H](CC(=O)OC(C)(C)C)c1nnc(C)n1-2 [NCGC00250412-19] | -213
C1=C2CCCN[C@H]2[C@@H]2C[C@H]1[C@H]1CCCCN1C2 + Cc1sc2c(c1C)C(c1ccc(Cl)cc1)=N[C@@H](CC(=O)OC(C)(C)C)c1nnc(C)n1-2 [NCGC00250412-19] | -80.4
CCN(C(=O)c1c(O)c2c(Cl)cccc2n(C)c1=O)c1ccccc1 + Cc1sc2c(c1C)C(c1ccc(Cl)cc1)=N[C@@H](CC(=O)OC(C)(C)C)c1nnc(C)n1-2 [NCGC00250412-19] | -129
CCc1nc(N)nc(N)c1-c1ccc(Cl)cc1 + Cc1sc2c(c1C)C(c1ccc(Cl)cc1)=N[C@@H](CC(=O)OC(C)(C)C)c1nnc(C)n1-2 [NCGC00250412-19] | -92.5
CC(C)NCC(O)COc1ccc(CCOCC2CC2)cc1 (configuration not stated) + Cc1sc2c(c1C)C(c1ccc(Cl)cc1)=N[C@@H](CC(=O)OC(C)(C)C)c1nnc(C)n1-2 [NCGC00250412-19] | -56.8
O=C(O)c1cn(C2CC2)c2cc(N3CCNCC3)c(F)cc2c1=O + Cc1sc2c(c1C)C(c1ccc(Cl)cc1)=N[C@@H](CC(=O)OC(C)(C)C)c1nnc(C)n1-2 [NCGC00250412-19] | -31.4
COc1cc2ncn(-c3cc(OCc4ccccc4C(F)(F)F)c(C(N)=O)s3)c2cc1OC + Cc1sc2c(c1C)C(c1ccc(Cl)cc1)=N[C@@H](CC(=O)OC(C)(C)C)c1nnc(C)n1-2 [NCGC00250412-19] | -59.3
CC(C)(N)c1ccc(-c2nc3ccccc3nc2-c2ccccc2)cc1 + Cc1sc2c(c1C)C(c1ccc(Cl)cc1)=N[C@@H](CC(=O)OC(C)(C)C)c1nnc(C)n1-2 [NCGC00250412-19] | -116
CN1c2cc(O)c(N=NC(N)=O)cc2CC1S(=O)(=O)O (configuration not stated) + Cc1sc2c(c1C)C(c1ccc(Cl)cc1)=N[C@@H](CC(=O)OC(C)(C)C)c1nnc(C)n1-2 [NCGC00250412-19] | -280
C1COC(NC(C2CC2)C2CC2)=N1 + Cc1sc2c(c1C)C(c1ccc(Cl)cc1)=N[C@@H](CC(=O)OC(C)(C)C)c1nnc(C)n1-2 [NCGC00250412-19] | -171
COc1cc(OC2CCN(C)CC2)ccc1Nc1ncc2c(n1)n(C1CCCC1)c(=O)n2C + Cc1sc2c(c1C)C(c1ccc(Cl)cc1)=N[C@@H](CC(=O)OC(C)(C)C)c1nnc(C)n1-2 [NCGC00250412-19] | 32.4
CN1CCN(c2ncc(-c3cc(Cl)cc(Cl)c3Cl)c(N)n2)CC1 + Cc1sc2c(c1C)C(c1ccc(Cl)cc1)=N[C@@H](CC(=O)OC(C)(C)C)c1nnc(C)n1-2 [NCGC00250412-19] | -219
C#CCN[C@@H]1CCc2ccccc21 + Cc1sc2c(c1C)C(c1ccc(Cl)cc1)=N[C@@H](CC(=O)OC(C)(C)C)c1nnc(C)n1-2 [NCGC00250412-19] | 68
O=C(Nc1ccc(Oc2ccnc3[nH]ccc23)c(F)c1)c1cccn(-c2ccc(F)cc2)c1=O + Cc1sc2c(c1C)C(c1ccc(Cl)cc1)=N[C@@H](CC(=O)OC(C)(C)C)c1nnc(C)n1-2 [NCGC00250412-19] | -78.2
CN1N=C(N)c2cn([C@@H]3O[C@H](COP(=O)(O)O)[C@@H](O)[C@H]3O)c3ncnc1c23 + Cc1sc2c(c1C)C(c1ccc(Cl)cc1)=N[C@@H](CC(=O)OC(C)(C)C)c1nnc(C)n1-2 [NCGC00250412-19] | -229
COc1cc2c(Oc3ccc(NC(=O)C4(C(=O)Nc5ccc(F)cc5)CC4)cc3F)ccnc2cc1OCCCN1CCOCC1 + Cc1sc2c(c1C)C(c1ccc(Cl)cc1)=N[C@@H](CC(=O)OC(C)(C)C)c1nnc(C)n1-2 [NCGC00250412-19] | -170
C[S+]([O-])c1ccc(-c2nc(-c3ccc(F)cc3)c(-c3ccncc3)[nH]2)cc1 (configuration not stated) + Cc1sc2c(c1C)C(c1ccc(Cl)cc1)=N[C@@H](CC(=O)OC(C)(C)C)c1nnc(C)n1-2 [NCGC00250412-19] | 44.9
CC(=O)NCCC(=O)N[C@@H](CCC(N)=O)C(=O)N[C@@H](CO)C(=O)N[C@@H](CCC(N)=O)C(=O)N[C@@H](CCC(N)=O)C(=O)N[C@H](C(=O)N[C@@H](Cc1ccccc1)C(=O)N[C@]1(C)CCCCCCC=CCCC[C@@](C)(C(=O)N[C@@H](CCC(N)=O)C(=O)N[C@@H](CC(N)=O)C(N)=O)NC(=O)[C@H](CC(C)C)NC(=O)[C@H](CC(C)C)NC(=O)[C@@H](CCCNC(=N)N)NC(=O)[C@H](Cc2c[nH]c3ccccc23)NC(=O)[C@H](CC(C)C)NC(=O)[C@H](CC(N)=O)NC1=O)[C@H](C)O + Cc1sc2c(c1C)C(c1ccc(Cl)cc1)=N[C@@H](CC(=O)OC(C)(C)C)c1nnc(C)n1-2 [NCGC00250412-19] | -32.1
Nc1ncnc2ccccc12 + Cc1sc2c(c1C)C(c1ccc(Cl)cc1)=N[C@@H](CC(=O)OC(C)(C)C)c1nnc(C)n1-2 [NCGC00250412-19] | 79.3
CC1=NN(c2ccccc2)C(=O)C1 + Cc1sc2c(c1C)C(c1ccc(Cl)cc1)=N[C@@H](CC(=O)OC(C)(C)C)c1nnc(C)n1-2 [NCGC00250412-19] | -110
Cn1cnc2c1c(=O)[nH]c(=O)n2C + Cc1sc2c(c1C)C(c1ccc(Cl)cc1)=N[C@@H](CC(=O)OC(C)(C)C)c1nnc(C)n1-2 [NCGC00250412-19] | -51.3

SMILES | excess over highest single agent
CCC[C@@H]1C[C@@H](C(=O)N[C@@H]([C@H]2O[C@H](SC)[C@H](O)[C@@H](O)[C@H]2O)[C@H](C)Cl)N(C)C1 + Cc1sc2c(c1C)C(c1ccc(Cl)cc1)=N[C@@H](CC(=O)OC(C)(C)C)c1nnc(C)n1-2 [NCGC00250412-19] | 41.8
Nc1ncnc2c1nc(Cl)n2[C@@H]1O[C@H](CO)[C@@H](O)[C@H]1O + Cc1sc2c(c1C)C(c1ccc(Cl)cc1)=N[C@@H](CC(=O)OC(C)(C)C)c1nnc(C)n1-2 [NCGC00250412-19] | -61.2
CO[C@H]1/C=C\C=C(/C)C(=O)NC2=CC(=O)C(NCCN(C)C)=C(C[C@@H](C)C[C@H](OC)[C@H](O)[C@@H](C)/C=C(\C)[C@@H]1OC(N)=O)C2=O + Cc1sc2c(c1C)C(c1ccc(Cl)cc1)=N[C@@H](CC(=O)OC(C)(C)C)c1nnc(C)n1-2 [NCGC00250412-19] | -331
O=C(N[C@H](CO)[C@H](O)c1ccc([N+](=O)[O-])cc1)C(Cl)Cl + Cc1sc2c(c1C)C(c1ccc(Cl)cc1)=N[C@@H](CC(=O)OC(C)(C)C)c1nnc(C)n1-2 [NCGC00250412-19] | 70.4
CCCCCNC(=O)N1CCC(CN(Cc2ccc(Cl)cc2)Cc2ccc([N+](=O)[O-])s2)C1 (configuration not stated) + Cc1sc2c(c1C)C(c1ccc(Cl)cc1)=N[C@@H](CC(=O)OC(C)(C)C)c1nnc(C)n1-2 [NCGC00250412-19] | 15.1
Cc1c(C(=O)Nc2cccc(C(F)(F)F)c2)cc(-c2ccccc2)n1CCCN1CCOCC1 + Cc1sc2c(c1C)C(c1ccc(Cl)cc1)=N[C@@H](CC(=O)OC(C)(C)C)c1nnc(C)n1-2 [NCGC00250412-19] | -146
CNC1[C@H](O)C(O[C@@H]2C(O)C(O[C@H]3O[C@H]([C@@H](C)NC)CC[C@H]3N)[C@@H](N)C[C@H]2N)OC[C@]1(C)O (some centres not stated) + Cc1sc2c(c1C)C(c1ccc(Cl)cc1)=N[C@@H](CC(=O)OC(C)(C)C)c1nnc(C)n1-2 [NCGC00250412-19] | -204
NC(=O)c1cccc(-c2cc(Nc3ccc(OC(F)(F)F)cc3)ncn2)c1 + Cc1sc2c(c1C)C(c1ccc(Cl)cc1)=N[C@@H](CC(=O)OC(C)(C)C)c1nnc(C)n1-2 [NCGC00250412-19] | -50.4
CC1=C(CC/C(C)=C/CCC2=CC[C@H](C3=CC(=O)O[C@H]3O)O[C@H]2O)C(C)(C)CCC1 + Cc1sc2c(c1C)C(c1ccc(Cl)cc1)=N[C@@H](CC(=O)OC(C)(C)C)c1nnc(C)n1-2 [NCGC00250412-19] | -147
O=C1CSC(=O)N1C(CCc1ccncc1)COc1ccc(-c2cccc([N+](=O)[O-])c2)cc1 (configuration not stated) + Cc1sc2c(c1C)C(c1ccc(Cl)cc1)=N[C@@H](CC(=O)OC(C)(C)C)c1nnc(C)n1-2 [NCGC00250412-19] | -96.7
CC1(C)O[C@H]2CC(=O)OC[C@]23[C@H]2CC[C@@]4(C)[C@H](c5ccoc5)OC(=O)[C@H]5O[C@]54[C@]2(C)C(=O)C[C@@H]13 + Cc1sc2c(c1C)C(c1ccc(Cl)cc1)=N[C@@H](CC(=O)OC(C)(C)C)c1nnc(C)n1-2 [NCGC00250412-19] | -232
CC(C)C[C@@H](C(=O)N[C@H](C(=O)OC1CCCC1)c1ccccc1)[C@H](O)C(=O)NO + Cc1sc2c(c1C)C(c1ccc(Cl)cc1)=N[C@@H](CC(=O)OC(C)(C)C)c1nnc(C)n1-2 [NCGC00250412-19] | 245
CCCCCCCCCCCCCCCCCCCCCCO + Cc1sc2c(c1C)C(c1ccc(Cl)cc1)=N[C@@H](CC(=O)OC(C)(C)C)c1nnc(C)n1-2 [NCGC00250412-19] | -117
NS(=O)(=O)c1ccc(NC2=CC(=O)c3ccccc3C2=O)cc1 + Cc1sc2c(c1C)C(c1ccc(Cl)cc1)=N[C@@H](CC(=O)OC(C)(C)C)c1nnc(C)n1-2 [NCGC00250412-19] | -112
CN1c2ccccc2C(=O)N2CCc3c([nH]c4ccccc34)[C@@H]21 + Cc1sc2c(c1C)C(c1ccc(Cl)cc1)=N[C@@H](CC(=O)OC(C)(C)C)c1nnc(C)n1-2 [NCGC00250412-19] | -226
CN(N=O)C(=O)N[C@@H]1[C@@H](O)[C@H](O)[C@@H](CO)O[C@@H]1O + Cc1sc2c(c1C)C(c1ccc(Cl)cc1)=N[C@@H](CC(=O)OC(C)(C)C)c1nnc(C)n1-2 [NCGC00250412-19] | -18.6
CCCCCCOC(=O)NC(=N)c1ccc(NCc2nc3cc(C(=O)N(CCC(=O)OCC)c4ccccn4)ccc3n2C)cc1 + Cc1sc2c(c1C)C(c1ccc(Cl)cc1)=N[C@@H](CC(=O)OC(C)(C)C)c1nnc(C)n1-2 [NCGC00250412-19] | -41.3
CN[C@@H]1[C@H](O)[C@H](NC)[C@H]2O[C@@]3(O)C(=O)C[C@@H](C)O[C@H]3O[C@@H]2[C@H]1O + Cc1sc2c(c1C)C(c1ccc(Cl)cc1)=N[C@@H](CC(=O)OC(C)(C)C)c1nnc(C)n1-2 [NCGC00250412-19] | -111
NS(=O)(=O)c1cc2c(cc1Cl)NC(C(Cl)Cl)NS2(=O)=O (configuration not stated) + Cc1sc2c(c1C)C(c1ccc(Cl)cc1)=N[C@@H](CC(=O)OC(C)(C)C)c1nnc(C)n1-2 [NCGC00250412-19] | -193
COc1ccc(Cn2ccc3ccc(C(=O)NO)cc32)cc1 + Cc1sc2c(c1C)C(c1ccc(Cl)cc1)=N[C@@H](CC(=O)OC(C)(C)C)c1nnc(C)n1-2 [NCGC00250412-19] | -152
C#Cc1cccc(Nc2ncnc3cc(OCCOC)c(OCCOC)cc23)c1 + Cc1sc2c(c1C)C(c1ccc(Cl)cc1)=N[C@@H](CC(=O)OC(C)(C)C)c1nnc(C)n1-2 [NCGC00250412-19] | 140
Cc1onc(-c2ccccc2Cl)c1C(=O)N[C@@H]1C(=O)N2[C@@H]1SC(C)(C)[C@@H]2C(=O)O + Cc1sc2c(c1C)C(c1ccc(Cl)cc1)=N[C@@H](CC(=O)OC(C)(C)C)c1nnc(C)n1-2 [NCGC00250412-19] | -42.3
COc1ccccc1-c1cccc(-c2c(O)c3cc(C#N)c(Cl)cc3[nH]c2=O)c1 + Cc1sc2c(c1C)C(c1ccc(Cl)cc1)=N[C@@H](CC(=O)OC(C)(C)C)c1nnc(C)n1-2 [NCGC00250412-19] | -15.9

A few values from the list:
Value for CCC[C@@H]1C[C@@H](C(=O)N[C@@H]([C@H]2O[C@H](SC)[C@H](O)[C@@H](O)[C@H]2O)[C@H](C)Cl)N(C)C1 + Cc1sc2c(c1C)C(c1ccc(Cl)cc1)=N[C@@H](CC(=O)OC(C)(C)C)c1nnc(C)n1-2 [NCGC00250412-19] under excess over highest single agent: 41.8
Value for CN1c2ccccc2C(=O)N2CCc3c([nH]c4ccccc34)[C@@H]21 + Cc1sc2c(c1C)C(c1ccc(Cl)cc1)=N[C@@H](CC(=O)OC(C)(C)C)c1nnc(C)n1-2 [NCGC00250412-19] under excess over highest single agent: -226
Value for Nc1ncnc2c1nc(Cl)n2[C@@H]1O[C@H](CO)[C@@H](O)[C@H]1O + Cc1sc2c(c1C)C(c1ccc(Cl)cc1)=N[C@@H](CC(=O)OC(C)(C)C)c1nnc(C)n1-2 [NCGC00250412-19] under excess over highest single agent: -61.2
